No constants are given. Whether binding was seen depends on the method and setting. In cells and extracts the contact can be indirect. Some binding calls cover weakened binding; strength is not graded here. For some of these results: Tags and fused reporters may be left off the sequences shown.

Amino acid sequences for entries named in this document (tags omitted).
UniProt Q61602: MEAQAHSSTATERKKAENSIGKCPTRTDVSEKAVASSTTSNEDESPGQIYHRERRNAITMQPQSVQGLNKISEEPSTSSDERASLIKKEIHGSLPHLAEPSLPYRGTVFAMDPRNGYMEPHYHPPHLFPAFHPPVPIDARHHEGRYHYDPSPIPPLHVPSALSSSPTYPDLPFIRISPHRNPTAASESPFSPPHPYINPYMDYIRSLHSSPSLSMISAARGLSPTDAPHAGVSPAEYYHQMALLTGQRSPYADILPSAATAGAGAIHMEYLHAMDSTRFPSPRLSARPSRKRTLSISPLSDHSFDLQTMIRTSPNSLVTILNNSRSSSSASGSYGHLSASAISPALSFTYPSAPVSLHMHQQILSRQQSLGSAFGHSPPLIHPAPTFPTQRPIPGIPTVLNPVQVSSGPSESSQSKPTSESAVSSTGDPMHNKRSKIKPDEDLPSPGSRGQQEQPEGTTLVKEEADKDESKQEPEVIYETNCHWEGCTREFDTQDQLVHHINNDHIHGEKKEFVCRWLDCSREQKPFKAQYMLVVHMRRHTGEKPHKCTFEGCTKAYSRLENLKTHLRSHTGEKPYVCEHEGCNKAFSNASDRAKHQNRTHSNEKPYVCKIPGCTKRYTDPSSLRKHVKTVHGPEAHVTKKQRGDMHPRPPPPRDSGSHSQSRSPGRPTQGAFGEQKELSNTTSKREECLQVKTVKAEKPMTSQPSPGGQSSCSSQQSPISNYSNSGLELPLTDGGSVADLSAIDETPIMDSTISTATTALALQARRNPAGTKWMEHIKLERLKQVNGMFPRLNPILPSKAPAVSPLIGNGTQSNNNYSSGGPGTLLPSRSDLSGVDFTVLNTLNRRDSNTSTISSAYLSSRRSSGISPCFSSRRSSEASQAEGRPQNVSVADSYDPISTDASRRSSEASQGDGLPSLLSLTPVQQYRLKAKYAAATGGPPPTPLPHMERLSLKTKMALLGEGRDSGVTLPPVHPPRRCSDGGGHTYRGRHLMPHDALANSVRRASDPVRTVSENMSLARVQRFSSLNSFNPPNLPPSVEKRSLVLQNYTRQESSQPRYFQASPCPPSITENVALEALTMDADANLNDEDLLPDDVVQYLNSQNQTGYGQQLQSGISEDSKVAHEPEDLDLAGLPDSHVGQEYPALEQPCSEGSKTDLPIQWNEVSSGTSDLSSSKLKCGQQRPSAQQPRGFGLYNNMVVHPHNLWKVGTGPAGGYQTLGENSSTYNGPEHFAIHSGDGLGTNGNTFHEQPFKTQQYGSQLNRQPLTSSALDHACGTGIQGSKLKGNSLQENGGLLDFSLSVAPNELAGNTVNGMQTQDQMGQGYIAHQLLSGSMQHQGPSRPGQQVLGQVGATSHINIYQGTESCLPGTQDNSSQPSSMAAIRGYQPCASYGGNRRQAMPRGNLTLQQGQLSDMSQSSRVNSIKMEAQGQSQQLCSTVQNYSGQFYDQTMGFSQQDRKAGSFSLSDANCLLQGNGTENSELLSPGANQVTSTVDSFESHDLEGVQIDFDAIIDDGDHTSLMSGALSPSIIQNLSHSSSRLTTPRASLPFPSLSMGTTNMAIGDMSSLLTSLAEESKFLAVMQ
UniProt Q6ZWS8: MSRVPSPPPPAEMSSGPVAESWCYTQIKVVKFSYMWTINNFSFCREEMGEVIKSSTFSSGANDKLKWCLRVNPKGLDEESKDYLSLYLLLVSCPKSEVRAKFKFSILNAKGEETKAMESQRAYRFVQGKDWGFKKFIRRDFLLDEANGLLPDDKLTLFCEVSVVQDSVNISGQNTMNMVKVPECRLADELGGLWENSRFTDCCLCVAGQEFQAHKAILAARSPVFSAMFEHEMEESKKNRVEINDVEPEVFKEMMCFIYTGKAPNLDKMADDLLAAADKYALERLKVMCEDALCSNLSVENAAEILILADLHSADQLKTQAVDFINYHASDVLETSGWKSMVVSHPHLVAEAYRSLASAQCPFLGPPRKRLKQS

The target of test [1] is T1, T-box3 (Tbx3), endogenous mouse protein (mouse (endogenous in E10.5 embryos)) (UniProt P70324).
T1 sequence: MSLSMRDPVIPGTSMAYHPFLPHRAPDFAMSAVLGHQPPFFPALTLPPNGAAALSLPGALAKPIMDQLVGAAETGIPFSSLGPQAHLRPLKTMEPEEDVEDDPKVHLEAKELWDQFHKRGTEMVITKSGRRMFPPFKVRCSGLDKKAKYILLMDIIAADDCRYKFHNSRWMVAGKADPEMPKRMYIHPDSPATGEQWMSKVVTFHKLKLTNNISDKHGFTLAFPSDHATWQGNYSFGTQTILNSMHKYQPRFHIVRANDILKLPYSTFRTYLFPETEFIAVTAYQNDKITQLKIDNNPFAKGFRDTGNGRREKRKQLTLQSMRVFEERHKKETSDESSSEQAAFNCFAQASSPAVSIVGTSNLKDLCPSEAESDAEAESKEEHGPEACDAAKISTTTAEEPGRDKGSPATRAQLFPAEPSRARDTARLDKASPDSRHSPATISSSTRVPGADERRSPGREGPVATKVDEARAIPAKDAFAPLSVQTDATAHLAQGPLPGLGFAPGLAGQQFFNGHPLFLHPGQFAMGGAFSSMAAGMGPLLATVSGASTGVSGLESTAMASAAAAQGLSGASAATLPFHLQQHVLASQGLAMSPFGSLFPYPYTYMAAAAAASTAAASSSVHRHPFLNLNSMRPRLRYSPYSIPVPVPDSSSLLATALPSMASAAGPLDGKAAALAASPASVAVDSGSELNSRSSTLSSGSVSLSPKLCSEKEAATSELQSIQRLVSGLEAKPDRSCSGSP
Description: co-IP; endogenous proteins; E10.5 whole mouse embryo lysates in Dignam buffer C, control (wt) embryos; Sufu-Gli3, Sufu-Kif7 and Tbx3-Spop also assayed in Tbx3 null (Tbx3 delta-fl/delta-fl, ko) embryos, where less Sufu-Gli3 and Sufu-Kif7 co-precipitated; 5-10 ug antibody overnight at 4 C, Protein-G Dynal beads, immunoblot, densitometry. For orientation: Immunoblotting shows a protein as a band on a membrane.

The target in test [2] is Gli3, endogenous mouse protein as precipitated by anti-Gli3 (Gli3FL and Gli3R not told apart) (mouse (endogenous in E10.5 embryos)) (UniProt Q61602). Described as above.
Test [3] concerns the target T2, Kif7, endogenous mouse protein (mouse (endogenous in E10.5 embryos)) (UniProt B7ZNG0).
T2 sequence: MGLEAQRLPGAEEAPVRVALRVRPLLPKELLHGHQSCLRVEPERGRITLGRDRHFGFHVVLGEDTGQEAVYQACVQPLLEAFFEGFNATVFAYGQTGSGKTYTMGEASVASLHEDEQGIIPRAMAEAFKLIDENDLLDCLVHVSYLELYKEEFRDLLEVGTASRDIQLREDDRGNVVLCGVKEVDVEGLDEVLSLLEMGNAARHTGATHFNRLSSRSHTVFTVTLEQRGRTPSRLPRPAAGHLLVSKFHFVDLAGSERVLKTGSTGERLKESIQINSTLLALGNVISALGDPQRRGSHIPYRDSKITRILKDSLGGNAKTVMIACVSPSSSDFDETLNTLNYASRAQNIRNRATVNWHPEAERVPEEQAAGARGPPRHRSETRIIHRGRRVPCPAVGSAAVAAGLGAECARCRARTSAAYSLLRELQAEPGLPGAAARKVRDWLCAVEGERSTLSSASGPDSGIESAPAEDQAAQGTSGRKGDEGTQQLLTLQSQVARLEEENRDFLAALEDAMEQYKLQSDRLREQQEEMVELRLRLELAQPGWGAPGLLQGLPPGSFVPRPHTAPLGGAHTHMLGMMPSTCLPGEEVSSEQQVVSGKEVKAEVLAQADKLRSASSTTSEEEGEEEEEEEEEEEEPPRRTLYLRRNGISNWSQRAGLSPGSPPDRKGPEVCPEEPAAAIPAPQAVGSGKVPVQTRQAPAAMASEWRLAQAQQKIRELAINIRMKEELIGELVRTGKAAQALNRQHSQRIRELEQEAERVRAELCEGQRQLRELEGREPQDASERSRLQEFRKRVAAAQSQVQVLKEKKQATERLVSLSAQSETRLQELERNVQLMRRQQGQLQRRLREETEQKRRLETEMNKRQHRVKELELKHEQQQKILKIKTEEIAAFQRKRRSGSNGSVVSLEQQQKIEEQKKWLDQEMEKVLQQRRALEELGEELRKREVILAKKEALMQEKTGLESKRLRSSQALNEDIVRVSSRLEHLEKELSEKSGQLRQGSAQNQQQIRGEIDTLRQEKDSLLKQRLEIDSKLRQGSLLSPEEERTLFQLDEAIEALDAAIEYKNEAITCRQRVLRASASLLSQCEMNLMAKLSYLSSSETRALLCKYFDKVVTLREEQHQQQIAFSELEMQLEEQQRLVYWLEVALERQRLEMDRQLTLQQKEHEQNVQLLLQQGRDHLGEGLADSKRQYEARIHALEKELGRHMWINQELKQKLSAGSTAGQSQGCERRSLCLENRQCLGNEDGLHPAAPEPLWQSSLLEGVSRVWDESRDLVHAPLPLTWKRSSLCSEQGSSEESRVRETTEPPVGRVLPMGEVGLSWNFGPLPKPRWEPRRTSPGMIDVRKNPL
Described as above.

Test [4] addresses T2, Kif7, endogenous mouse protein (mouse (endogenous in E10.5 embryos)). Description: co-IP; endogenous proteins; E10.5 mouse forelimb bud lysates in Dignam buffer C; 5-10 ug antibody overnight at 4 C, Protein-G Dynal beads, three washes, immunoblot.
The target in test [5] is T3, Suppressor of fused (Sufu), endogenous mouse protein (mouse (endogenous in E10.5 embryos)) (UniProt Q9Z0P7).
T3 sequence: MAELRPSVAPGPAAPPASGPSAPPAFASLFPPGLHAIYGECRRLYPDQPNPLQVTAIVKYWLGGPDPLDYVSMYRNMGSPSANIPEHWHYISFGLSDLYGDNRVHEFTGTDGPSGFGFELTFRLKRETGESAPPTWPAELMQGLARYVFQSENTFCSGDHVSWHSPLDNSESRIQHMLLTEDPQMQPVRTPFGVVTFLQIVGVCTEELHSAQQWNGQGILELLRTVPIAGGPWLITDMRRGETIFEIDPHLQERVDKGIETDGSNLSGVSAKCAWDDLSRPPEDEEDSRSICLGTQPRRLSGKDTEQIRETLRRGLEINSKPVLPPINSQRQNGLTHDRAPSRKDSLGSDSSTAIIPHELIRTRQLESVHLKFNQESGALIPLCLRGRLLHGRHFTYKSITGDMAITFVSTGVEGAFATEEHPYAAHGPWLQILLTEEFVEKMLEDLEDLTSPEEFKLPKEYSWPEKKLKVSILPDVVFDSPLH
Put plainly: co-IP; endogenous proteins; E10.5 whole mouse embryo lysates in Dignam buffer C, control (wt) embryos; Sufu-Gli3, Sufu-Kif7 and Tbx3-Spop also assayed in Tbx3 null (Tbx3 delta-fl/delta-fl, ko) embryos, where less Sufu-Gli3 and Sufu-Kif7 co-precipitated; 5-10 ug antibody overnight at 4 C, Protein-G Dynal beads, immunoblot, densitometry.

In the case of “speckle-type POZ protein (Spop), endogenous mouse protein (from UniProt Q6ZWS8 1-374)”, the binding result in test [1] is listed as “no binding”.

B1: Suppressor of fused (Sufu), endogenous mouse protein (protein, UniProt Q9Z0P7 1-484)
chain: T3 sequence
For B1, the figures for the binding entry in test [2], in test [3] and in test [1] were “binds”, “binds” and “no binding”, respectively.

B2: T-box3 (Tbx3), endogenous mouse protein (protein, UniProt P70324 1-741)
chain: T1 sequence
For the molecule B2, the binding entry in test [4] is reported as “binds”; in test [3] it was “binds”; in test [5], “no binding”.

The values above are taken from paper PMC4829432, “T-box3 is a ciliary protein and regulates stability of the Gli3 transcription factor to control digit number” (eLife, 2016).
